According to the supplement of paper PMC10849652:
The other results are listed elsewhere or left out.

Amino acid sequences for entries named in this document (tags omitted). A change or cut given only in a name is not applied to a line headed by its entry.
UniProt A0FGR8: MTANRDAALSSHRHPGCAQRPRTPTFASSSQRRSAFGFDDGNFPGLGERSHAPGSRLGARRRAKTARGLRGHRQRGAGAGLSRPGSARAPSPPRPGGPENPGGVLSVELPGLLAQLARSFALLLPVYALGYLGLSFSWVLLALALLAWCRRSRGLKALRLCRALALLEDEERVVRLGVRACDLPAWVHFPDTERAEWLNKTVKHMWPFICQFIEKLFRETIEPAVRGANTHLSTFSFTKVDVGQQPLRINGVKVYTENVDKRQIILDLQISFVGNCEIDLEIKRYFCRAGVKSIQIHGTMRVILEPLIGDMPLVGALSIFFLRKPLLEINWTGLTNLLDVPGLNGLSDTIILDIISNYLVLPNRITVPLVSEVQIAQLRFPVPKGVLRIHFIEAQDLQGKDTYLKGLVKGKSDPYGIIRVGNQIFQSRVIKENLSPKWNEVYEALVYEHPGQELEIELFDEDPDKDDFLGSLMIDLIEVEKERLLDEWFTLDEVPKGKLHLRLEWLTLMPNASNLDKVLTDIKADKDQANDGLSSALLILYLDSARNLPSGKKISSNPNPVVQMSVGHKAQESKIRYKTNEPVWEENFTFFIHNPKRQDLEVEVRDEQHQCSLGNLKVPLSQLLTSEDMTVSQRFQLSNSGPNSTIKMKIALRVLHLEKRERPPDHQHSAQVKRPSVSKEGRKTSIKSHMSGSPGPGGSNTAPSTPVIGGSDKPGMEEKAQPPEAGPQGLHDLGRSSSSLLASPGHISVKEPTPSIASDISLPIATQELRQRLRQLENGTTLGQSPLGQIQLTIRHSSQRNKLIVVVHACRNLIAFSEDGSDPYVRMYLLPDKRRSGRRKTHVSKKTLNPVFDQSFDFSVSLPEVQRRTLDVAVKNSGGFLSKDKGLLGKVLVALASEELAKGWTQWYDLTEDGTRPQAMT
UniProt Q96PL5: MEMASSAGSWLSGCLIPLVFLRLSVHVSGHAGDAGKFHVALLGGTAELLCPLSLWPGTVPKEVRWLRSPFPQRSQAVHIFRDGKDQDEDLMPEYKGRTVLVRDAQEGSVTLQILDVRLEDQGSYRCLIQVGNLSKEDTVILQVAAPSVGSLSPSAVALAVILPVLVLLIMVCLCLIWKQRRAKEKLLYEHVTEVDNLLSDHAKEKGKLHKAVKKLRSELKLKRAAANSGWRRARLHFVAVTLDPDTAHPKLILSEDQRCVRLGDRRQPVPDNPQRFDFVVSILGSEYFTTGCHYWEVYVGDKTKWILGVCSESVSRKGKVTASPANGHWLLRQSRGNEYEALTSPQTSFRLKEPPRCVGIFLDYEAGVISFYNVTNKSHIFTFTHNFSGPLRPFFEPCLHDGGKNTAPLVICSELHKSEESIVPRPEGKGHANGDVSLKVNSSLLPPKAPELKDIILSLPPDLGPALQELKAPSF
UniProt Q9NZB2: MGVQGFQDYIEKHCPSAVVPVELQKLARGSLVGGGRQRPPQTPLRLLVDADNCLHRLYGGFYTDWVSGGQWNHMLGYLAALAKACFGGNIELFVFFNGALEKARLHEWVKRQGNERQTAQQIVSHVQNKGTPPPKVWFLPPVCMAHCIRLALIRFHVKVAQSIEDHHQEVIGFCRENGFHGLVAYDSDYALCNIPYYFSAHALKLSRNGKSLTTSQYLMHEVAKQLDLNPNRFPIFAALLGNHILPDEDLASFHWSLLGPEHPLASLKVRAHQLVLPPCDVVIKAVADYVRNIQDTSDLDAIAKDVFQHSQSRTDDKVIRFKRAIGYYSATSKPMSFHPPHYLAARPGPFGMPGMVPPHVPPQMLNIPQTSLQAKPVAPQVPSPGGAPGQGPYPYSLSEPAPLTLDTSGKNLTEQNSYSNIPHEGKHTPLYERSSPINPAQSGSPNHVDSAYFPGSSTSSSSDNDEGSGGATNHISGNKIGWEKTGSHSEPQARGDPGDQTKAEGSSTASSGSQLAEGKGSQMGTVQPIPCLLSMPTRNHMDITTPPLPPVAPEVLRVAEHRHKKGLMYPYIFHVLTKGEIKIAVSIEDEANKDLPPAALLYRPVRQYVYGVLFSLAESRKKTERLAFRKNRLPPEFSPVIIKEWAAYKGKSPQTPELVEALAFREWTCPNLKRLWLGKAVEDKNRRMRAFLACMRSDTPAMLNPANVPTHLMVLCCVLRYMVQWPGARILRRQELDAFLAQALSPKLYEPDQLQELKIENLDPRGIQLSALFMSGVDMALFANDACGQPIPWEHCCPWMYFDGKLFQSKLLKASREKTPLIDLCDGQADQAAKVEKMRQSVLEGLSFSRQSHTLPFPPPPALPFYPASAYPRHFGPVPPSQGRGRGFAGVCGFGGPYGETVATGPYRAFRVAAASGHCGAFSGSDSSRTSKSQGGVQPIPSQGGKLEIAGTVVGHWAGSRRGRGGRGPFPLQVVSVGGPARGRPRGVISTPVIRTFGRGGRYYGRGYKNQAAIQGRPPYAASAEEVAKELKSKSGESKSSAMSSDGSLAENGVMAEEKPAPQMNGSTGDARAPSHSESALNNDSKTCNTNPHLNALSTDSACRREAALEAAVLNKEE
UniProt P16930: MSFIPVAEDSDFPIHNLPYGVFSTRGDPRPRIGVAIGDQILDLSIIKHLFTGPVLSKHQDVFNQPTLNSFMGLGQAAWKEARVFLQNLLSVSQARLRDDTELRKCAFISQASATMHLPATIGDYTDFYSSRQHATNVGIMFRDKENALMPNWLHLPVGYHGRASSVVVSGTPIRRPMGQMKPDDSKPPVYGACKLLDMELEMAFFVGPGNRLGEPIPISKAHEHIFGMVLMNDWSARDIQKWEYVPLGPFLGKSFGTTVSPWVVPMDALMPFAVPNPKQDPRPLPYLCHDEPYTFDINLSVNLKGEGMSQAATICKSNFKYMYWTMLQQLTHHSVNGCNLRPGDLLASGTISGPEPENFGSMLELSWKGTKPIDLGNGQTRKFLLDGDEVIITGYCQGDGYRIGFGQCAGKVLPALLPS
UniProt Q96HE7: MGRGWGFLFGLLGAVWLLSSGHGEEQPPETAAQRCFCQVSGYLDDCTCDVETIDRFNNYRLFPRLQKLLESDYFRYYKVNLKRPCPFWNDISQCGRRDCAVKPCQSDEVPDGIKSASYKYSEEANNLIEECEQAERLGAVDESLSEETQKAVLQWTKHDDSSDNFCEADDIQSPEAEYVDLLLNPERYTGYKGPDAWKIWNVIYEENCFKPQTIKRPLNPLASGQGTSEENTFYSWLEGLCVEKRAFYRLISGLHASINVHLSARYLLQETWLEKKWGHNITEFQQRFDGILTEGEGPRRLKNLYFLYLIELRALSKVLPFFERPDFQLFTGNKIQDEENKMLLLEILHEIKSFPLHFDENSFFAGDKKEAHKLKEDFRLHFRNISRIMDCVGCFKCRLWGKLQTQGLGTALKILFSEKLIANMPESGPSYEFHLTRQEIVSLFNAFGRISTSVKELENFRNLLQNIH
UniProt P07099: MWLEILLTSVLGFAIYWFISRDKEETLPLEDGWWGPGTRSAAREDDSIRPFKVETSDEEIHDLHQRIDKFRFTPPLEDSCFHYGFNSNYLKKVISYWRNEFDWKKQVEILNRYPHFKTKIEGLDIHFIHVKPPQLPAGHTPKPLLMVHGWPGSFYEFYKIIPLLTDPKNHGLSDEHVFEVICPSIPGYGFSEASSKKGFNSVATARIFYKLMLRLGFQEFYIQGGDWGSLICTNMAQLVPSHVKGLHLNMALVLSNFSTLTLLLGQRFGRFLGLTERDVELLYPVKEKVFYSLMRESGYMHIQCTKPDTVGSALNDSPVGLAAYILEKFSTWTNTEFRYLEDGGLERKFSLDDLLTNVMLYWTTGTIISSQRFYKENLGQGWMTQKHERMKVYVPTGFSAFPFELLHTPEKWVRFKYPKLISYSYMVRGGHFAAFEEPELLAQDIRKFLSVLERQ
UniProt Q7L775: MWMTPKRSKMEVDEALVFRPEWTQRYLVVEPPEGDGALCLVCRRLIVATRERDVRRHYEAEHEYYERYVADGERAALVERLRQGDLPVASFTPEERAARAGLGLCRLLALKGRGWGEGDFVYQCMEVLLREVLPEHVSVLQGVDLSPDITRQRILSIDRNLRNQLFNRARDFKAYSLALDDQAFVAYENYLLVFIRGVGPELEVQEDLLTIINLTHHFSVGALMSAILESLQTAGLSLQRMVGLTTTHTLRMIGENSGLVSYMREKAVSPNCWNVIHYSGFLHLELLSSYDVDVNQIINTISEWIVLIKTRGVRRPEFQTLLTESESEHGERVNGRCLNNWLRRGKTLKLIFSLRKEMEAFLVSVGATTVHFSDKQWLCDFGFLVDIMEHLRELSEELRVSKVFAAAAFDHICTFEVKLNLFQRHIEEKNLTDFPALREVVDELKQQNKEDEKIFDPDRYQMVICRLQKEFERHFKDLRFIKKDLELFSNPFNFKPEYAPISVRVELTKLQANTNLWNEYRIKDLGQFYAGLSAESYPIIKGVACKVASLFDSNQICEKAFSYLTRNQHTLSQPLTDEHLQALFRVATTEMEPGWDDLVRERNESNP
UniProt P42566: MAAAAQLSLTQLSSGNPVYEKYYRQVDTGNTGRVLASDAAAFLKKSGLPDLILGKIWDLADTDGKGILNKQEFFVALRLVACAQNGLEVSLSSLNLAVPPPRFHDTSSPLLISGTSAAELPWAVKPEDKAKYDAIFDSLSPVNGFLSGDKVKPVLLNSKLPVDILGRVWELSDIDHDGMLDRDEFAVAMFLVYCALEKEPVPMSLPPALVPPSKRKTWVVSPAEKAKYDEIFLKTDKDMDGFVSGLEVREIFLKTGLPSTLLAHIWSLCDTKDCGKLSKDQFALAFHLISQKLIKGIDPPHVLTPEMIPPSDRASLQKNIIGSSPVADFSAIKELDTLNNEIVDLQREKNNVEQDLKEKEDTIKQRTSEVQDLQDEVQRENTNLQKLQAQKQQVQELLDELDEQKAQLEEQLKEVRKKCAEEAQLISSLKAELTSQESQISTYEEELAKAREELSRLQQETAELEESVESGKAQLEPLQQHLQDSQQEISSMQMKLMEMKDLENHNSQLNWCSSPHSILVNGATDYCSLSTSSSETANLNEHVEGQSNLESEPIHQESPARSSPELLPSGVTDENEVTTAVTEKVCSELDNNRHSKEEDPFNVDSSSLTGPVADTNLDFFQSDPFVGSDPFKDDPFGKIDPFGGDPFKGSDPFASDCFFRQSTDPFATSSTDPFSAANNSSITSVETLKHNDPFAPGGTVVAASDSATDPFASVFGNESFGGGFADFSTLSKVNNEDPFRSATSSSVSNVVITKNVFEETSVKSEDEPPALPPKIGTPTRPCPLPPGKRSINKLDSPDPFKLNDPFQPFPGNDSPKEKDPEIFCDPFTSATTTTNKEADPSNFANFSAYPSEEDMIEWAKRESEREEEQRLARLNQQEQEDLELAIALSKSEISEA
UniProt P28715: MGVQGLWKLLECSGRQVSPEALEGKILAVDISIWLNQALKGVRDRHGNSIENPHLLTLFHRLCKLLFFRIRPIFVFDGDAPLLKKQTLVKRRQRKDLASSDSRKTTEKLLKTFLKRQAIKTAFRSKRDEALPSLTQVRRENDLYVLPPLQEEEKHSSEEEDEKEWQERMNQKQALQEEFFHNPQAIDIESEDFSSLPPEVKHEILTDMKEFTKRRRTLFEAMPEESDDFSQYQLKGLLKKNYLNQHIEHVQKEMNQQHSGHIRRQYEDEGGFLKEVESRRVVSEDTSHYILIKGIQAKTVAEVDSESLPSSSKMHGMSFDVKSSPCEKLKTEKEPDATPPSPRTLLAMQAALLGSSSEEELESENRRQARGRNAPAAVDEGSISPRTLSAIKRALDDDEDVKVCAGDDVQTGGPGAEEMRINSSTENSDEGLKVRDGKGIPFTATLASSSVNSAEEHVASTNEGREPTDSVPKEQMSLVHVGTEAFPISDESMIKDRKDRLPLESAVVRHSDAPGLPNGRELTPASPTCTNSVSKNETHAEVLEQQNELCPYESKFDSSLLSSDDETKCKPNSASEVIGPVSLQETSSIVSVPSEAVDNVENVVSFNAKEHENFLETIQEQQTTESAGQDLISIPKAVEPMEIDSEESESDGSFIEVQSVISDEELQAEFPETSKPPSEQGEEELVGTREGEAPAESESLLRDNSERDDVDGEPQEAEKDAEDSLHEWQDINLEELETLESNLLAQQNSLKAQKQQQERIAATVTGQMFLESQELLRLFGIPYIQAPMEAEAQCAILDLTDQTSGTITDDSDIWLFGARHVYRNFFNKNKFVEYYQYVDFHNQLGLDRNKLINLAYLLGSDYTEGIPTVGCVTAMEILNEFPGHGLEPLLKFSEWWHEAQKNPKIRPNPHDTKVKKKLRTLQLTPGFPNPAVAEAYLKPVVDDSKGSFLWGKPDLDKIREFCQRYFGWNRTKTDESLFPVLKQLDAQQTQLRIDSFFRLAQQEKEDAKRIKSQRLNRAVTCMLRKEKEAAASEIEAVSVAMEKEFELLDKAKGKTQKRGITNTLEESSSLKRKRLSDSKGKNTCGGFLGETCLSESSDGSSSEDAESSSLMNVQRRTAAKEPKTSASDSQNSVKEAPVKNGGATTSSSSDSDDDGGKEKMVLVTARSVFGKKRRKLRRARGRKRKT

Assays:
Assay in all cases: log2 fold change, soluble protein after heating vs DMSO (PISA); higher = thermal stabilisation; K562 cells, 10 uM, 30 min; active = over 0.2 and 3.5 SD of the protein, either way, in both replicates (recomputed)
[1] = compound: CS(=O)(=O)c1ccc(-c2cnc(N)c(C(=O)Nc3ccccc3)n2)cc1
Method in brief: (§1)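 Soluble protein was quantified by TMTpro 16plex LC-MS/MS after channel sums were equalised. It was obtained as the supernatant after 21,000xg for 90 min from pooled aliquots of K562 cells (2×10^6 cells/mL, 10 μM compound, 30 min) heated for 3 min across 48°C-58°C and extracted in PBS with 0.5% NP-40 at 4°C. Thermal stability values are relative to control samples and come from duplicates. They are given as log2 fold changes.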

[2] = compound: C[C@@H](Oc1cc(-c2cnn(C3CCNCC3)c2)cnc1N)c1c(Cl)ccc(F)c1Cl [crizotinib]
Method in brief: as §1

[3] = compound: C[C@@H]1COCCN1C2=NC(=NC(=C2)C3(CC3)S(=O)(=O)C)C4=C5C=CNC5=CC=C4
Method in brief: as §1

[4] = compound: C[C@H](C1=CC=C(C=C1)C(=O)NC2=C3C=CNC3=NC=C2)N
Method in brief: as §1

[5] = compound: C[C@H](Nc1ncnc2nc[nH]c12)c1cc2cccc(Cl)c2c(=O)n1-c1ccccc1 [duvelisib]
Method in brief: as §1

[6] = compound: Cc1cc(Nc2cc(CN3CCOCC3)c3nc(C)c(Cc4ccc(Cl)cc4F)n3n2)n[nH]1 [gandotinib]
Method in brief: as §1

[7] = compound: Cc1cc(Nc2cc(N3CCN(C)CC3)nc(Sc3ccc(NC(=O)C4CC4)cc3)n2)n[nH]1 [tozasertib]
Method in brief: as §1

[8] = compound: Cc1cc(SCc2sc(-c3ccc(C(F)(F)F)cc3)nc2C)ccc1OCC(=O)O
Method in brief: as §1

[9] = compound: Cc1ccc(-n2nc(C(C)(C)C)cc2NC(=O)Nc2ccc(OCCN3CCOCC3)c3ccccc23)cc1 [doramapimod]
Method in brief: as §1

[10] = compound: Cc1ccc(C(=O)N(CCCN)[C@@H](c2nc3cc(Cl)ccc3c(=O)n2Cc2ccccc2)C(C)C)cc1 [ispinesib]
Method in brief: as §1

[11] = compound: Cc1ccc(NC(=O)c2ccc(CN3CC[C@H](N(C)C)C3)c(C(F)(F)F)c2)cc1Nc1nccc(-c2cncnc2)n1 [bafetinib]
Method in brief: as §1

[12] = compound: Cc1cccc(CC(=O)N2CCc3c2ccc(-c2cn(C)c4ncnc(N)c24)c3F)n1
Method in brief: as §1

[13] = compound: Cc1cn(-c2cc(NC(=O)c3ccc(C)c(Nc4nccc(-c5cccnc5)n4)c3)cc(C(F)(F)F)c2)cn1 [nilotinib]
Method in brief: as §1

[14] = compound: Cc1nc(Nc2n[nH]c3c2CN(C(=O)N[C@H](CN(C)C)c2ccccc2)C3(C)C)c2sccc2n1
Method in brief: as §1

[15] = compound: Cc1nc(Nc2ncc(C(=O)Nc3c(C)cccc3Cl)s2)cc(N2CCN(CCO)CC2)n1 [dasatinib]
Method in brief: as §1

[16] = compound: Cc1ncc(-c2ccnc(Nc3ccc(S(C)(=O)=O)cc3)n2)n1C(C)C
Method in brief: as §1

[17] = compound: Cn1cc(-c2ccc3c(c2)CCN3C(=O)Cc2cccc(C(F)(F)F)c2)c2c(N)ncnc21
Method in brief: as §1

[18] = compound: Cn1cc(-c2ccc3nnc(C(F)(F)c4ccc5ncccc5c4)n3n2)cn1
Method in brief: as §1

[19] = compound: Cn1cncc1[C@@](N)(c1ccc(Cl)cc1)c1ccc2c(c1)c(-c1cccc(Cl)c1)cc(=O)n2C [tipifarnib]
Method in brief: as §1

[20] = compound: FC(F)(F)c1ccc(/C=C/c2nc(COc3ccc(CCCCn4ccnn4)cc3)co2)cc1 [mubritinib]
Method in brief: as §1

Measured: log2 fold change

ESYT2 isoform 2 (UniProt A0FGR8)
inactive: [1] 0.049 | [2] 0.002 | [3] 0.015 | [4] -0.025 | [5] 0.089 | [6] -0.021 | [7] -0.011 | [8] 0.05 | [9] -0.024 | [10] -0.104 | [11] -0.059 | [12] -0.023 | [13] 0.023 | [14] -0.073 | [15] -0.022 | [16] -0.004 | [17] 0.023 | [18] 0.04 | [19] 0.048 | [20] 0.018

ERI3 (UniProt O43414)
inactive: [1] 0.043 | [2] -0.071 | [3] 0.064 | [4] -0.042 | [5] 0.03 | [6] -0.036 | [7] -0.04 | [8] 0.024 | [9] -0.032 | [10] 0.027 | [11] 0.014 | [12] -0.004 | [13] -0.016 | [14] 0.032 | [15] -0.015 | [16] -0.01 | [17] 0.062 | [18] 0.041 | [19] 0.042 | [20] 0.064

ETFB (UniProt P38117)
inactive: [1] 0.047 | [2] 0.014 | [3] 0.015 | [4] -0.05 | [5] 0.004 | [6] 0.017 | [7] -0.046 | [8] -0.061 | [9] -0.009 | [10] 0.015 | [11] -0.017 | [12] -0.03 | [13] 0.04 | [14] 0.001 | [15] 0 | [16] -0.019 | [17] 0.022 | [18] 0.012 | [19] 0.055 | [20] 0.027

ERMAP (UniProt Q96PL5)
inactive: [1] 0.04 | [2] 0.01 | [3] -0.096 | [4] 0.075 | [5] -0.072 | [6] 0.038 | [7] 0.032 | [8] -0.004 | [9] -0.015 | [10] -0.039 | [11] 0.005 | [12] -0.014 | [13] 0.08 | [14] -0.044 | [15] -0.161 | [16] -0.028 | [17] -0.018 | [18] 0.058 | [19] 0.094 | [20] 0.002

ETFRF1 (UniProt Q6IPR1)
inactive: [1] 0.104 | [2] 0.113 | [3] 0.035 | [4] -0.083 | [5] -0.022 | [6] 0.027 | [7] 0.074 | [8] -0.131 | [9] -0.053 | [10] 0.024 | [11] -0.079 | [12] -0.114 | [13] -0.111 | [14] -0.101 | [15] 0.077 | [16] -0.182 | [17] 0.104 | [18] 0.088 | [19] 0.057 | [20] 0.082

FAM120A isoform 6 (UniProt Q9NZB2)
inactive: [1] -0.092 | [2] 0.015 | [3] -0.242 | [4] 0.208 | [5] -0.117 | [6] 0.102 | [7] 0.019 | [8] -0.017 | [9] 0.052 | [10] -0.135 | [11] 0.055 | [12] -0.021 | [13] 0.023 | [14] 0.002 | [15] 0.118 | [16] 0.101 | [17] -0.208 | [18] -0.083 | [19] 0.137 | [20] -0.054

FAM133B (UniProt Q5BKY9)
inactive: [1] 0.014 | [2] 0.014 | [3] -0.12 | [4] -0.037 | [5] -0.014 | [6] 0.031 | [7] 0.007 | [8] 0.017 | [9] -0.049 | [10] 0.005 | [11] -0.075 | [12] 0.007 | [13] -0.079 | [14] -0.048 | [15] 0.004 | [16] -0.018 | [17] -0.037 | [18] -0.022 | [19] 0.069 | [20] -0.044

FAH isoform 2 (UniProt P16930)
inactive: [1] -0.083 | [2] -0.068 | [3] 0.116 | [4] 0.054 | [5] 0.091 | [6] -0.493 | [7] -0.056 | [8] -0.079 | [9] 0.067 | [10] -0.126 | [11] 0.082 | [12] -0.014 | [13] -0.02 | [14] 0.032 | [15] 0.118 | [16] -0.073 | [17] 0.03 | [18] 0.028 | [19] -0.064 | [20] 0.058

EXT2 isoform 3 (UniProt Q93063)
inactive: [1] -0.071 | [2] -0.037 | [3] -0.08 | [4] 0.203 | [5] -0.019 | [6] 0.097 | [7] -0.02 | [8] 0.082 | [9] 0.122 | [10] -0.104 | [11] 0.004 | [12] 0.014 | [13] -0.086 | [14] 0.076 | [15] 0.014 | [16] -0.042 | [17] -0.082 | [18] 0.016 | [19] 0.138 | [20] -0.048

ERO1A (UniProt Q96HE7)
inactive: [1] 0.004 | [2] -0.007 | [3] -0.031 | [4] 0.039 | [5] -0.015 | [6] -0.009 | [7] 0.023 | [8] -0.004 | [9] -0.023 | [10] 0.032 | [11] -0.023 | [12] -0.059 | [13] -0.007 | [14] 0.001 | [15] 0.027 | [16] -0.054 | [17] -0.044 | [18] 0.011 | [19] 0.038 | [20] -0.06

EPHX1 (UniProt P07099)
inactive: [1] 0.032 | [2] 0.083 | [3] 0.021 | [4] -0.041 | [5] -0.046 | [6] -0.085 | [7] 0.013 | [8] -0.098 | [9] -0.015 | [10] 0.057 | [11] -0.068 | [12] 0.03 | [13] 0.009 | [14] 0.016 | [15] 0.076 | [16] -0.006 | [17] -0.002 | [18] 0.039 | [19] 0.219 | [20] 0.028

FAH (UniProt P16930)
inactive: [1] 0.028 | [2] 0.046 | [3] 0.057 | [4] -0.135 | [5] 0.04 | [6] -0.019 | [7] -0.02 | [8] -0.033 | [9] -0.036 | [10] 0.021 | [11] -0.024 | [12] 0.046 | [13] 0.008 | [14] -0.004 | [15] 0.008 | [16] -0.011 | [17] 0.045 | [18] 0.004 | [19] -0.017 | [20] 0.031

EPM2AIP1 (UniProt Q7L775)
inactive: [1] 0.026 | [2] 0.007 | [3] 0.015 | [4] -0.041 | [5] 0.063 | [6] 0.001 | [7] 0.016 | [8] 0.046 | [9] 0.005 | [10] -0.034 | [11] -0.076 | [12] 0.005 | [13] 0.002 | [14] -0.066 | [15] -0.026 | [16] 0.008 | [17] 0.029 | [18] -0.009 | [19] -0.007 | [20] 0.047

Copied from the results shown (2 entries):
ERI3 (UniProt O43414)
inactive: [1] 0.043 | [2] -0.071 | [3] 0.064 | [4] -0.042 | [5] 0.03 | [6] -0.036 | [7] -0.04 | [8] 0.024 | [9] -0.032 | [10] 0.027 | [11] 0.014 | [12] -0.004 | [13] -0.016 | [14] 0.032 | [15] -0.015 | [16] -0.01 | [17] 0.062 | [18] 0.041 | [19] 0.042 | [20] 0.064

ETFB (UniProt P38117)
inactive: [1] 0.047 | [2] 0.014 | [3] 0.015 | [4] -0.05 | [5] 0.004 | [6] 0.017 | [7] -0.046 | [8] -0.061 | [9] -0.009 | [10] 0.015 | [11] -0.017 | [12] -0.03 | [13] 0.04 | [14] 0.001 | [15] 0 | [16] -0.019 | [17] 0.022 | [18] 0.012 | [19] 0.055 | [20] 0.027

(continued)

EXOSC8 (UniProt Q96B26)
inactive: [1] 0.033 | [2] 0.059 | [3] -0.065 | [4] -0.046 | [5] 0.027 | [6] -0.038 | [7] -0.01 | [8] -0.04 | [9] -0.007 | [10] 0.036 | [11] -0.035 | [12] -0.105 | [13] 0.002 | [14] 0 | [15] 0.052 | [16] -0.016 | [17] -0.039 | [18] -0.008 | [19] 0.002 | [20] -0.006

EPS15 (UniProt P42566)
inactive: [1] 0.054 | [2] -0.029 | [3] 0.011 | [4] -0.006 | [5] -0.054 | [6] -0.05 | [7] 0.103 | [8] -0.003 | [9] -0.021 | [10] -0.025 | [11] -0.02 | [12] 0.034 | [13] -0.13 | [14] 0.119 | [15] -0.023 | [16] 0.065 | [17] -0.06 | [18] 0.047 | [19] -0.052 | [20] 0.051

ERCC5 (UniProt P28715)
inactive: [1] -0.033 | [2] -0.057 | [3] -0.005 | [4] 0.045 | [5] -0.025 | [6] -0.179 | [7] -0.212 | [8] 0.073 | [9] 0.056 | [10] 0.041 | [11] -0.116 | [12] 0.025 | [13] 0.043 | [14] -0.099 | [15] -0.024 | [16] -0.062 | [17] 0 | [18] -0.008 | [19] 0.082 | [20] 0.109
